Here are results for one molecule from US20140148782A1, “TISSUE INFUSION SYSTEM AND METHOD” (TWIN STAR MEDICAL, INC., priority 2010, published 2014).

For the data set, the system named is ex vivo canine prostates. The data set is described as follows: dye infusion into ex vivo canine prostate with hollow fiber catheters. More on the design: species or system dog.
The mark [1] stands for this setting: 1.4-cm hollow fiber catheter, 0.01% dye in saline, 3.6 milliliters per catheter.

Regarding `Cc1cc(-c2ccc(/N=N/c3ccc4c(S(=O)(=O)[O-])cc(S(=O)(=O)[O-])c(N)c4c3O)c(C)c2)ccc1/N=N/c1ccc2c(S(=O)(=O)[O-])cc(S(=O)(=O)[O-])c(N)c2c1O.[Na+].[Na+].[Na+].[Na+]` [Evan's blue dye], under setting [1], the “infusion pressure at 10 minutes, left lobe” value came to 401 mm Hg and the “infusion pressure at 10 minutes, right lobe” value turned out to be 480 mm Hg. Further, the “dye distribution in prostate” value (5 mm slices after infusion) is “distributed in each lobe with very little dye traveling into the urethra”. Also, the backflow entry (either hollow fiber catheter) is “No backflow was observed”.
